# Experimental data as given in patent US9034846B2, “Use of cyclodextrin for treatment and prevention of bronchial inflammatory diseases” (UNIVERSITE DE LIEGE, priority 2004, dated 2015).
# At least one compound was matched to its structure with a doubt left.
# System: IL-13
# Assay: IL-13 ELISA in BAL and lung protein extracts, OVA mouse model
# Format: in vivo
# Details: FIG. 11
# Protocol: In order to study modulation of airway inflammation, males BALB/c mice of 6 to 8 weeks old were sensitized by intraperitoneal injection of 10 μg ovalbumin (OVA) (Sigma Aldrich, Schnelldorf, Germany) emulsified in aluminum hydroxyde (AlumInject; Perbio, Erembodegem, Belgium) on days 1 and 8. Mice were subsequently exposed to allergens by daily inhalation of an aerosol of OVA 1%, for 30 minutes, generated by ultrasonic nebulizer (Devilbiss 2000), from day 21 to 27. Mice were subjected to inhalation of β-CD, HP-β-CD HP 1, 7.5, 50 mM and HP-β-CD 50 mM 30 minutes before OVA inhalation. Mice were sacrificed performed on day 28 as previously reported by Cataldo and al in Am. J. Pathol 2002; 161(2):491-498. […]
# Eotaxin and IL-13 levels were assessed using commercial ELISAs (R&D systems, Abingdon, UK). Eotaxin was measured by incubation in a wheel coated with a primary antibody specifically dedicated to the recognition of the protein and after rinsing, a second antibody against eotaxin, coupled with horse radish peroxydase was used to quantify the amounts of eotaxin in the solution
# IL-13 was measured by incubation in a wheel coated with a primary antibody specifically dedicated to the recognition of the protein and after rinsing, a second antibody against IL-13, coupled with horse radish peroxydase was used to quantify the amounts of […] in the solution.
smiles,measurement,value
"C[C@@H]1C[C@H]2[C@@H]3C[C@H](F)C4=CC(=O)C=C[C@]4(C)[C@@]3(F)[C@@H](O)C[C@]2(C)[C@@]1(O)C(=O)SCF [Fluticasone, reference compound]",levels of IL-13 in whole lung protein extracts,significantly decreased
